At least one read-out could not be matched to a standard name with certainty. Some results were stated once for a whole list of compounds, not compound by compound.
Test system: CEM cells
Assay: Morphology by microscopy (mitotic arrest, apoptosis, necrosis)
Assay type: cell-based, human
Settings: % of mitotic cells after 24 h incubation, optical microscopy
Method: Slides for examination of mitosis were prepared on a cytospin centrifuge (Shandon Southern Products Ltd, England ) at 700 g for 5 min. Slides were air dried, fixed in methanol and stained with Giemsa (Harleco, N.J.) at room temperature for 15 min. Cells in mitotic arrest were recognized by the disappearance of nuclear membrane and by the appearance of chromosomal scattering throughout the cytoplasm (reference 1). The % of mitotic cells were counted after 24 h incubation using optical microscopy. Apoptotic cells were identified using common criteria, i.e., shrinkage in cell size, chromatin condensation and fragmentation of the nucleus into discrete masses (reference 2).
Cell samples on slides were prepared by a Cytospin centrifuge (Shandon Southern Products Ltd, England) at 700 g for 5 min. The slides were air dried, fixed in methanol and stained with Giemsa (Harleco, N.J.) at room temperature for 15 min. Alterations of nuclei, membranes and morphological features were observed by light microscopy. Cells in mitotic phase were recognized by the appearance of their chromosomes dispersed in the cytoplasm, and by the disappearance of nuclear membrane. Apoptotic-cells were identified using previously defined criteria, i.e., shrinkage in cell size, chromatin condensation and fragmentation of the nucleus into discrete masses (references 2 & 3). Necrotic cells were differentiated from apoptotic cells by observing swollen cytoplasm and the disappearance of cell membrane prior to the destruction of the nucleus.

NC(=O)NC(=O)c1cccc(NC(=O)CCl)c1 [Compound 7, 3-Chloroacetoamido, benzoylurea]
Mitotic arrest, %: 20-30% | Mitotic arrest, % (listed as chlorine compound): approximately 30%

NC(=O)NC(=O)c1cccc(NC(=O)CBr)c1 [Compound 8, 3-Bromoacetoamido, benzoylurea]
Mitotic arrest, % (listed as bromine compound): > 85%

NC(=O)NC(=O)c1cccc(NC(=O)CI)c1 [Compound 9, 3-Iodoacetoamido, benzoylurea]
Mitotic arrest, % (listed as iodine compound): > 85%

Source: patent publication US6590123B2, “Aminobenzoic acid derivatives having anti-tumorigenic activity, methods of making and using the same” (Mount Sinai School of Medicine of New York University, priority 1998, dated 2003)
